The target of one assay is FLAG-tagged bRaf, P15056. As to the kind of experiment: co-IP; HEK-293 cotransfected with HA-Cdc37 variants and FLAG-bRaf; anti-FLAG resin 1 h at 4 °C; blot with anti-HA. Particulars: remark: other sources report otherwise.
The target of a further assay is FLAG-tagged bRaf (UniProt P15056). The description is as above.
Assay [1] addresses SH3 domain of Yes (amino acids 91-152) (UniProt P07947). The assay can be described thus: NMR titration; 6.0 molar equivalents of unlabelled full-length Cdc37 (1.2 mM) added to 15N-labelled Yes^SH3 (200 μM); 5 °C; 50 mM KPi pH 6.5, 150 mM NaCl, 2 mM DTT; both purified.
Another assay has as its target SH2 domain of Lyn (UniProt P07948). The assay can be described thus: ITC; phosphopeptide (600-750 μM, syringe) titrated into SH2 domain (50-60 μM, cell); 25 °C; 20 mM Tris, 100 mM NaCl, 0.5 mM EDTA, 1 mM TCEP; single binding site model; both purified. (In ITC the heat of successive injections is recorded.)
For another assay, the target named is SH2 domain of Hck (UniProt P08631). The assay is described as above.
For assay [2], the target named is SH2 domain of Src (UniProt P12931). Described as above.
For assay [3], the target named is SH2 domain of Yes (UniProt P07947). The assay can be described thus: NMR titration; pYESL added to 15N-labelled SH2 domain, 15N-HSQC; Yes^SH2: 25 °C, 1.2 molar equivalents of phosphopeptide at 250 μM; 20 mM Tris pH 7.5, 100 mM NaCl, 0.5 mM EDTA, 2 mM DTT; both purified.
In assay [4] the target is SH2 domain of Src (UniProt P12931). The description is as above.
Assay [5] concerns the target SH2 domain of Yes (UniProt P07947). The assay can be described thus: NMR titration; C-Cdc37 or C-Cdc37^Y298E added to 15N-labelled Yes^SH2, 15N-HSQC; both purified.

Amino acid sequences for entries named in this document (tags omitted). Residues count along the entry.
UniProt P15056: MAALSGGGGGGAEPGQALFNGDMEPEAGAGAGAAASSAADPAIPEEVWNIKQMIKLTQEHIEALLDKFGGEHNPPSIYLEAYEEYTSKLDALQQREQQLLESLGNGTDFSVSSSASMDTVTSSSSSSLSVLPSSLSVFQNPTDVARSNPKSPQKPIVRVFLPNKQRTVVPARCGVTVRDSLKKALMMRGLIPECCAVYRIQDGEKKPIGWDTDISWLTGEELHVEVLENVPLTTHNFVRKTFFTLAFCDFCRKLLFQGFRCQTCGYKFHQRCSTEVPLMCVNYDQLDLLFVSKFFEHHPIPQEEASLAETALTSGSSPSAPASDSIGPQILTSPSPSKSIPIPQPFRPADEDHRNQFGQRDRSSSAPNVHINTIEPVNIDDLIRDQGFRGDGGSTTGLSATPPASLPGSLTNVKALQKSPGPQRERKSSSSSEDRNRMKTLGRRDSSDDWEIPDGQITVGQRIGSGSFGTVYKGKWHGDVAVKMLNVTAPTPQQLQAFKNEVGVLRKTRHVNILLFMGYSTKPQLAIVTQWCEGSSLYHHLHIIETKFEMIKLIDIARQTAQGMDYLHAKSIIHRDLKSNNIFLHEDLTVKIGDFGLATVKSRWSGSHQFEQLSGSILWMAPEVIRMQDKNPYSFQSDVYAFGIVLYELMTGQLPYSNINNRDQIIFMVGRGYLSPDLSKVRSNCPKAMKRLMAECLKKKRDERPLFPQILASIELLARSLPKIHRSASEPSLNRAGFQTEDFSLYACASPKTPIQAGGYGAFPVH
SH3 domain of Yes (amino acids 91-152) (P07947, residues 91-152): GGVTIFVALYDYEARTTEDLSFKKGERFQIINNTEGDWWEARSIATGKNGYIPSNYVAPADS
SH2 domain of Yes (P07947, residues 158-255): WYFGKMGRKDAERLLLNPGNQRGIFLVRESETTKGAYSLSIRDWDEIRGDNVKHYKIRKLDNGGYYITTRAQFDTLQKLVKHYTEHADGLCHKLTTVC
UniProt P07948, residues 129-226: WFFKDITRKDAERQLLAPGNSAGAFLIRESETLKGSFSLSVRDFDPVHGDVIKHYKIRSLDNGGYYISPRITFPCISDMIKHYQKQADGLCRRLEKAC
UniProt P08631, residues 144-241: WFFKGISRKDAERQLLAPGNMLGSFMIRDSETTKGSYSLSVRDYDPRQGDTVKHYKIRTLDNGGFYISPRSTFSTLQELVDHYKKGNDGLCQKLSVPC

Results are given in words; binding and its absence hold for the method and conditions named. For some of these results: Binding seen in cells or lysates may run through a third protein. Some binding calls cover weakened binding; strength is not graded here. For some of these results: Where a sequence is shown, tags or fusion partners need not be part of it.

B1: HA-tagged wild-type Cdc37, Q16543 1-378 (protein)
chain: MVDYSVWDHIEVSDDEDETHPNIDTASLFRWRHQARVERMEQFQKEKEELDRGCRECKRKVAECQRKLKELEVAEGGKAELERLQAEAQQLRKEERSWEQKLEEMRKKEKSMPWNVDTLSKDGFSKSMVNTKPEKTEEDSEEVREQKHKTFVEKYEKQIKHFGMLRRWDDSQKYLSDNVHLVCEETANYLVIWCIDLEVEEKCALMEQVAHQTIVMQFILELAKSLKVDPRACFRQFFTKIKTADRQYMEGFNDELEAFKERVRGRAKLRIEKAMKEYEEEERKKRLGPGGLDPVEVYESLPEELQKCFDVKDVQMLQDAISKMDPTDAKYHMQRCIDSGLWVPNSKASEAKEGEEAGPGDPLLEAVPKTGDEKDVSV
Take B1: the binding entry with FLAG-tagged bRaf, P15056 is listed as “binds”.

B2: HA-tagged Cdc37 Y298F (protein, UniProt Q16543 1-378)
chain: MVDYSVWDHIEVSDDEDETHPNIDTASLFRWRHQARVERMEQFQKEKEELDRGCRECKRKVAECQRKLKELEVAEGGKAELERLQAEAQQLRKEERSWEQKLEEMRKKEKSMPWNVDTLSKDGFSKSMVNTKPEKTEEDSEEVREQKHKTFVEKYEKQIKHFGMLRRWDDSQKYLSDNVHLVCEETANYLVIWCIDLEVEEKCALMEQVAHQTIVMQFILELAKSLKVDPRACFRQFFTKIKTADRQYMEGFNDELEAFKERVRGRAKLRIEKAMKEYEEEERKKRLGPGGLDPVEVFESLPEELQKCFDVKDVQMLQDAISKMDPTDAKYHMQRCIDSGLWVPNSKASEAKEGEEAGPGDPLLEAVPKTGDEKDVSV
Turning to B2, the binding result with FLAG-tagged bRaf is “binds”.

B3: Full-length human Cdc37 (protein, UniProt Q16543 1-378)
chain: MVDYSVWDHIEVSDDEDETHPNIDTASLFRWRHQARVERMEQFQKEKEELDRGCRECKRKVAECQRKLKELEVAEGGKAELERLQAEAQQLRKEERSWEQKLEEMRKKEKSMPWNVDTLSKDGFSKSMVNTKPEKTEEDSEEVREQKHKTFVEKYEKQIKHFGMLRRWDDSQKYLSDNVHLVCEETANYLVIWCIDLEVEEKCALMEQVAHQTIVMQFILELAKSLKVDPRACFRQFFTKIKTADRQYMEGFNDELEAFKERVRGRAKLRIEKAMKEYEEEERKKRLGPGGLDPVEVYESLPEELQKCFDVKDVQMLQDAISKMDPTDAKYHMQRCIDSGLWVPNSKASEAKEGEEAGPGDPLLEAVPKTGDEKDVSV
For B3, the binding entry in assay [1] was “binds weakly”.

B4: HA-tagged Cdc37 Y298E (protein, UniProt Q16543 1-378)
chain: MVDYSVWDHIEVSDDEDETHPNIDTASLFRWRHQARVERMEQFQKEKEELDRGCRECKRKVAECQRKLKELEVAEGGKAELERLQAEAQQLRKEERSWEQKLEEMRKKEKSMPWNVDTLSKDGFSKSMVNTKPEKTEEDSEEVREQKHKTFVEKYEKQIKHFGMLRRWDDSQKYLSDNVHLVCEETANYLVIWCIDLEVEEKCALMEQVAHQTIVMQFILELAKSLKVDPRACFRQFFTKIKTADRQYMEGFNDELEAFKERVRGRAKLRIEKAMKEYEEEERKKRLGPGGLDPVEVEESLPEELQKCFDVKDVQMLQDAISKMDPTDAKYHMQRCIDSGLWVPNSKASEAKEGEEAGPGDPLLEAVPKTGDEKDVSV
For the molecule B4, the binding result in the assay with FLAG-tagged bRaf is on record as “binds”.

B5: Phosphotyrosine-modified decapeptide EVpYESLPEEL of Cdc37 (residues 296-305) (peptide)
peptide: EVYESLPEEL
modifications: phosphotyrosine at Y298 (third residue of the peptide)
Regarding B5, the binding entry with SH2 domain of Lyn is reported as “binds weakly”; in the assay with SH2 domain of Hck, “binds”; with SH2 domain of Src [2], “binds”; in the assay with SH2 domain of Yes [3] it was “binds”; in the assay with SH2 domain of Src [4], “binds”.

B6: C-terminal domain of Cdc37 (a.a. 288-378) with the phosphomimetic mutation Y298E (domain or fragment, UniProt Q16543 288-378)
chain: GPGGLDPVEVEESLPEELQKCFDVKDVQMLQDAISKMDPTDAKYHMQRCIDSGLWVPNSKASEAKEGEEAGPGDPLLEAVPKTGDEKDVSV
As for B6, in the assay with SH2 domain of Yes [5], the binding result is “no binding”.

The record behind these values is PMC5772613.
